Assay: general procedure: Fmoc solid-phase peptide synthesis; PAL Peg-PS resin; HCTU
Settings: whole synthesis, 215 nm

| Substance | purity (crude or final not stated) [%] |
| --- | --- |
| [Glu10, Leu17, Thr30]PP2-36 | 92.0 |
| [Glu10,Nle17,Nle30]PP2-36 | 98.8 |
| [Nle17, Nle30]PP2-36 | 96.0 |
